Data as given in publication PMC11184611, “Development of Nontoxic Peptides for Lipopolysaccharide Neutralization and Sepsis Treatment” (ACS Pharmacology & Translational Science, 2024).
These are yes or no findings as the source states them, for the method shown. Some results given as binding are weak or reduced against the parent protein; the word gives no strength.

Molecular target: K(AL)3K(AL)2K(AL)3K
Experiment: circular dichroism (222/208 ratio); 50 μM peptide in double-distilled water with 50 μM purified E. coli LPS, 25 °C, pH 7; ratio ~0.8 taken as monomer, ~1 and higher as oligomer; both purified

B1: K(AL)3K(AL)2K(AL)3K (peptide)
peptide: KALALALKALALKALALALK
modifications: C-terminal amide
**Q.** B1 was tested. Which binding did it give?
**A.** The binding was “binds”.
